Measured values from publication PMC6718625, “CryoEM structures of Arabidopsis DDR complexes involved in RNA-directed DNA methylation” (Nature Communications, 2019).
Results are given in words; binding and its absence hold for the method and conditions named. In cells and extracts the contact can be indirect. A yes stands for co-enrichment or nearness to the bait. Other partners may have been found. Where a sequence is shown, tags or fusion partners need not be part of it.

Target: T1, RDM1-3xFLAG (RNA-DIRECTED DNA …ON 1) (Arabidopsis) (UniProt Q9LUJ3)
T1 sequence: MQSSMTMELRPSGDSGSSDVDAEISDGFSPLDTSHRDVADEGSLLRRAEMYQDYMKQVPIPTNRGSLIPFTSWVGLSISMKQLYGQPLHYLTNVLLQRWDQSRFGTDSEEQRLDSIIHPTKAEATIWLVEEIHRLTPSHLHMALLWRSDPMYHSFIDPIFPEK
Assay: affinity purification with mass spectrometry; anti-FLAG M2 magnetic beads on extracts of inflorescences of RDM1-3xFLAG lines; IP buffer 50 mM Tris pH 7.6, 150 mM NaCl, 5 mM MgCl2, 10% glycerol, 0.1% NP40; 4 °C 3 h; eluted with 3xFLAG peptide; untransformed WS as control

## … IN MERISTEM … 3 (DMS3), endogenous (from UniProt Q94A79 1-420)
  binding: binds
